Results from doi:10.1101/2025.03.24.645131.
Results are given in words; binding and its absence hold for the method and conditions named. Binding seen in cells or lysates may run through a third protein. Some binding calls cover weakened binding; strength is not graded here.

Sequences of proteins named here, by UniProt entry; tags and fusion partners are left off. A change or cut given only in a name is not applied to a line headed by its entry.
UniProt P49407: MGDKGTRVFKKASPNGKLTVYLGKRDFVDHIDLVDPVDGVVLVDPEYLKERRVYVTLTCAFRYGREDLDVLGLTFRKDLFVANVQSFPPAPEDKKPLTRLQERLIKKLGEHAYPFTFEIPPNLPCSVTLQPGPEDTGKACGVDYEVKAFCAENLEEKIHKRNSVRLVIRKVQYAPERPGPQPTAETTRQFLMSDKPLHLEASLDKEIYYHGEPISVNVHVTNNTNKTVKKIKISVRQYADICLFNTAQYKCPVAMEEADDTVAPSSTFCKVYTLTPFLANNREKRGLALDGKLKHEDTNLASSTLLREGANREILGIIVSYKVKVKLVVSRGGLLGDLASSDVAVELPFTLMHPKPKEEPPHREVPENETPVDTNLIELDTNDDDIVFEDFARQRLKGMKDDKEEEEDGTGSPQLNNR

Biological target: T1, GPR119-LgBiT (UniProt Q8TDV5)
T1 sequence: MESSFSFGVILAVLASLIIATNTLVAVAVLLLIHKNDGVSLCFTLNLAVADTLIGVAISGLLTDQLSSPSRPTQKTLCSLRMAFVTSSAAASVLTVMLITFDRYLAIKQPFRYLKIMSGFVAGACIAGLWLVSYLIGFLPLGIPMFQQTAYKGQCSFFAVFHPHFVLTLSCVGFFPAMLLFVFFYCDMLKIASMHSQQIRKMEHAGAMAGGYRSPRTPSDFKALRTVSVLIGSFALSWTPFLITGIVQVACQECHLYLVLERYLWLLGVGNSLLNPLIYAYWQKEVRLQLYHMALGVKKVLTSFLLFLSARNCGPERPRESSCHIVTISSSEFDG
Assay: split reporter

| binding | Substance |
| --- | --- |
| binds | SmBiT-βarr1 (from UniProt P49407 1-418) |
| binds | SmBiT-βarr1_D194A/K195A (from UniProt P49407 1-418) |
